Source: the supplement of paper PMC10849652
The list shows a part of the results.

Sequences of proteins named here, by UniProt entry; tags and fusion partners are left off. A change or cut given only in a name is not applied to a line headed by its entry.
UniProt Q5T4F4: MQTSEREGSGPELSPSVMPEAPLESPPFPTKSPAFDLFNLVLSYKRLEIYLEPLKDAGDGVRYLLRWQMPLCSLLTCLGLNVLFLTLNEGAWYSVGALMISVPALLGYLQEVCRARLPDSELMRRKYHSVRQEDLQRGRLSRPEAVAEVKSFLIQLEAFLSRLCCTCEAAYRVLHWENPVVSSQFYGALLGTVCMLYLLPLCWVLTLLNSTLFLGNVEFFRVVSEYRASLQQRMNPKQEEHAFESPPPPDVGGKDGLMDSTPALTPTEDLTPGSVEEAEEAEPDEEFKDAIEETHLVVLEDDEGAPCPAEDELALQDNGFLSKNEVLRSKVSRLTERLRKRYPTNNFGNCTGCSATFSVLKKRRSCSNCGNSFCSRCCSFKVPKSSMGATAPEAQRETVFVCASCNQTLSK
UniProt Q8IWT0: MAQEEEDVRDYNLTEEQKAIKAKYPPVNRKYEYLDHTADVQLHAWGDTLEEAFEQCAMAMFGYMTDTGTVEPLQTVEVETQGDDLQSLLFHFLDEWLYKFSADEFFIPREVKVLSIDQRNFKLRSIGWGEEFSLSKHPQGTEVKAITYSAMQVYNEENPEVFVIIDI
UniProt P49750: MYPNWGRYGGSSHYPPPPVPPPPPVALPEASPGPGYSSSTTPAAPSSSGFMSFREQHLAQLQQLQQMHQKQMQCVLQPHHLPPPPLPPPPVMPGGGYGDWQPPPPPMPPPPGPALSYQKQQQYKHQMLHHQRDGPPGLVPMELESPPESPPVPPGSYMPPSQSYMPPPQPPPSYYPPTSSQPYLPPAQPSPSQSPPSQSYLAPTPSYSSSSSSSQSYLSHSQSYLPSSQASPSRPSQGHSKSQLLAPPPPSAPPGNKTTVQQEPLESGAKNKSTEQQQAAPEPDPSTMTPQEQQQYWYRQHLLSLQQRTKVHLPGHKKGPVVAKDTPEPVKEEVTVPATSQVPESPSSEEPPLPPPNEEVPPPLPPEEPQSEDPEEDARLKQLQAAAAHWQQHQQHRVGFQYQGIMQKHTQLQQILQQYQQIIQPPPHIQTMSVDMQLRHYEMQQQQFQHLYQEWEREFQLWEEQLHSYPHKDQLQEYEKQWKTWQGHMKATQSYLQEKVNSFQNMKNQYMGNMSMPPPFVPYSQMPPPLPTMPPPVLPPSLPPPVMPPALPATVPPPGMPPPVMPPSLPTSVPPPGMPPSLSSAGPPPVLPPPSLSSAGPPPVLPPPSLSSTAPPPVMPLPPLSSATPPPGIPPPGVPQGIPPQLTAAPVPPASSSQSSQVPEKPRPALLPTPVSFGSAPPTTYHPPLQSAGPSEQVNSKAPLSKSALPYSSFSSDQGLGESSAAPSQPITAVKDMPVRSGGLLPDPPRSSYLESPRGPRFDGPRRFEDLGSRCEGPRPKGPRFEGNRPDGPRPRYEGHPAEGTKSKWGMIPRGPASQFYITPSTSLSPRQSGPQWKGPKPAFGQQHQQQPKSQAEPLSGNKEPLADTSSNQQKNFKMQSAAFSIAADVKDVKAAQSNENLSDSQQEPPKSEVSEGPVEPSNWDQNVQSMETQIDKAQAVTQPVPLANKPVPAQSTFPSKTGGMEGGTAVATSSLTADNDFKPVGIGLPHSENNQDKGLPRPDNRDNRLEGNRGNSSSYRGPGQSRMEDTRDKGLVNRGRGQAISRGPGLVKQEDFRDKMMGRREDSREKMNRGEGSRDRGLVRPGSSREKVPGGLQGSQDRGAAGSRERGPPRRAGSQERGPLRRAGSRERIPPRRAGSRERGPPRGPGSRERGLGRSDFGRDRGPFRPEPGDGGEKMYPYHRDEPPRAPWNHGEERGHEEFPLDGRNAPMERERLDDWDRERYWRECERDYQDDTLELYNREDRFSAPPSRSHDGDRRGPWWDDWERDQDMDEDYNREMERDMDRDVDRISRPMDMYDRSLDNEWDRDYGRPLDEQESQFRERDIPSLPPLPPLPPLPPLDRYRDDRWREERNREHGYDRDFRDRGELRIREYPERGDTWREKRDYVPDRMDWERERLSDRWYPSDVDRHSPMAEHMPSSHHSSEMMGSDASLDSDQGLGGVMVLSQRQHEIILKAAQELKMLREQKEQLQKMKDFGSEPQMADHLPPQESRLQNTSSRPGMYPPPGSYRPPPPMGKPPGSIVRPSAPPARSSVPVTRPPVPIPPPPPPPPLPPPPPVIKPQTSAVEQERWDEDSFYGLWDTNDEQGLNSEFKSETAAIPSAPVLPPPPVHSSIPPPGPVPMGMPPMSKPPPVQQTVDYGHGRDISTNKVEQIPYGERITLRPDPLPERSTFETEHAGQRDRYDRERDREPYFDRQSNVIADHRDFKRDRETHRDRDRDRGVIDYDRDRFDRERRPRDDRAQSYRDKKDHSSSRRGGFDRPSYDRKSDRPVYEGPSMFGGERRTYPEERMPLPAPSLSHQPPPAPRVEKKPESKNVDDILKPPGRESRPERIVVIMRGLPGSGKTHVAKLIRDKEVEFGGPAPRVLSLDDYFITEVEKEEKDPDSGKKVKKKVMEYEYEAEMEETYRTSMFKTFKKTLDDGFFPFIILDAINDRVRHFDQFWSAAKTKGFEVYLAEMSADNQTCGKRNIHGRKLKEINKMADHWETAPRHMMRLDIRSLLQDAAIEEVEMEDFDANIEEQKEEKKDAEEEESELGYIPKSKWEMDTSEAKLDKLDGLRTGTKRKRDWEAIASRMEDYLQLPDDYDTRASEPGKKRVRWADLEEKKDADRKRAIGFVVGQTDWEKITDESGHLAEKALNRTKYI
UniProt Q96K21: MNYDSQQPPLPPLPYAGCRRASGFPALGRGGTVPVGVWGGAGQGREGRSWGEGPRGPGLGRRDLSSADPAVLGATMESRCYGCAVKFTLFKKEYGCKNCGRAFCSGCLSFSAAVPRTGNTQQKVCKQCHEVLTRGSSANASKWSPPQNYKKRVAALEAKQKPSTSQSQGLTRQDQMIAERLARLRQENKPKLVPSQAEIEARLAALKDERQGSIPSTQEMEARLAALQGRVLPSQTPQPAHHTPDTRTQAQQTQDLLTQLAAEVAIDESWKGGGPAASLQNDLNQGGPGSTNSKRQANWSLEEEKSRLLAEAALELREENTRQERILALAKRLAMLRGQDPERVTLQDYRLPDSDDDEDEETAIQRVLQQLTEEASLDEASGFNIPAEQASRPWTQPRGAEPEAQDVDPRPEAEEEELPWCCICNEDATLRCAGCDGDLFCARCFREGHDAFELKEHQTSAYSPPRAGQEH
UniProt O15498: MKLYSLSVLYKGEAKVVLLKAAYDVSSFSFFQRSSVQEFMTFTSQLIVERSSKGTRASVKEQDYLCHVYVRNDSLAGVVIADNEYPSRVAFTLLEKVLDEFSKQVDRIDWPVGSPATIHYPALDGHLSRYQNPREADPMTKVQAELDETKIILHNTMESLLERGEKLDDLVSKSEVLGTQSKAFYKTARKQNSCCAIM
UniProt Q8WU90: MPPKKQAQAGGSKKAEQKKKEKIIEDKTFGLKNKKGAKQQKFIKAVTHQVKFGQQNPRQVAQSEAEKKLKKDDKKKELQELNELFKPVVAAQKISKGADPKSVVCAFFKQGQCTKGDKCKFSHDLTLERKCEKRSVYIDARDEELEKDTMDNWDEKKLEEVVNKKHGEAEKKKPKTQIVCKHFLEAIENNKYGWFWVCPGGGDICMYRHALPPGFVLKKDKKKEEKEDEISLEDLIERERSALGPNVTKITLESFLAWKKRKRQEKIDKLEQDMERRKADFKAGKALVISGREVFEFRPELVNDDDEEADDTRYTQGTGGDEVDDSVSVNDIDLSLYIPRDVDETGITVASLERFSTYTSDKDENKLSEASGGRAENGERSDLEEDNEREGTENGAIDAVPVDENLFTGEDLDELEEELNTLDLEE
UniProt Q9NRH1: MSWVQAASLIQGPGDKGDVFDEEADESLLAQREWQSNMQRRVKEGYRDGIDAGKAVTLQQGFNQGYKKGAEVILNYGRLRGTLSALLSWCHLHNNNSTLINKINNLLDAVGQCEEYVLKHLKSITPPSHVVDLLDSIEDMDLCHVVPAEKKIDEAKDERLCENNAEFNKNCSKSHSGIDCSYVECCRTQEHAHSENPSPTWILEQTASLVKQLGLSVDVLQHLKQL
UniProt O14980, whole entry, looked up: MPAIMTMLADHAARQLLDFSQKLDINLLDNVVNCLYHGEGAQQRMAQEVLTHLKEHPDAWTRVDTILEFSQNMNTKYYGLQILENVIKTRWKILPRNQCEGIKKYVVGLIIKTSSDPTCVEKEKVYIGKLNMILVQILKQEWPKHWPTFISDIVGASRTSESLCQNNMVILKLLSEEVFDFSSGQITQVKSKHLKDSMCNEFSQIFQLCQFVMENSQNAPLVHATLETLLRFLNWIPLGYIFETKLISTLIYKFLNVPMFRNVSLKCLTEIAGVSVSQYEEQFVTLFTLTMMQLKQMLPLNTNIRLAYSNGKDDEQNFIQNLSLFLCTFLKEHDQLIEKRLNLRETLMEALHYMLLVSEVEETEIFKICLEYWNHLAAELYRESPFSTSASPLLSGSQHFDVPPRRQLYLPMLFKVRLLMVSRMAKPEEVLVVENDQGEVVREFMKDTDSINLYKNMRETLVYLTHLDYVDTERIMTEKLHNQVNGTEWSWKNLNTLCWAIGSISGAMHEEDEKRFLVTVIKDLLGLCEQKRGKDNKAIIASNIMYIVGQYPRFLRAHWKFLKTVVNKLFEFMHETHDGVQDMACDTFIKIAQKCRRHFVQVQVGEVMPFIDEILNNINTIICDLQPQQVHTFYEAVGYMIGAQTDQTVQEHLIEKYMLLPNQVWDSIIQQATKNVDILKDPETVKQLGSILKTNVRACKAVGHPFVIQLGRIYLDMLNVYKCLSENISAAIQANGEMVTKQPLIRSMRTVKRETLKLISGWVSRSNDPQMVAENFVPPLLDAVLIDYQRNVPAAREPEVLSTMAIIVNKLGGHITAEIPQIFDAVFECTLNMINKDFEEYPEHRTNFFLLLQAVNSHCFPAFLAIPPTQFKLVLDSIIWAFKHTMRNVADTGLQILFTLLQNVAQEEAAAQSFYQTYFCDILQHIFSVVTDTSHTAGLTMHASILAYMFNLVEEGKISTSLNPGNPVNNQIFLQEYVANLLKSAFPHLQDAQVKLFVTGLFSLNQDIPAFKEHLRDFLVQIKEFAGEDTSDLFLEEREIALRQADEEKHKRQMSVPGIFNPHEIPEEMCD
UniProt Q8NBI6: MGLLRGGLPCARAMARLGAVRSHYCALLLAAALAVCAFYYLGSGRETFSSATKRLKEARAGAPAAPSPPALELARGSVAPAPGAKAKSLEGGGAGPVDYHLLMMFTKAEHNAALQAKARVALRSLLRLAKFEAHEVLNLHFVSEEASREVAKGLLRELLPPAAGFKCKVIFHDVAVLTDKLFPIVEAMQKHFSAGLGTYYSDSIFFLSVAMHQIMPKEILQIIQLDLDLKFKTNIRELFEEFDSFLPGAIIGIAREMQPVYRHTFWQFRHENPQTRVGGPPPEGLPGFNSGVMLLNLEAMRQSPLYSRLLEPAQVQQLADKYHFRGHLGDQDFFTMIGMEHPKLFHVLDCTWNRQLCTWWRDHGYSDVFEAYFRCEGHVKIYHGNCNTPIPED
UniProt Q9ULJ3: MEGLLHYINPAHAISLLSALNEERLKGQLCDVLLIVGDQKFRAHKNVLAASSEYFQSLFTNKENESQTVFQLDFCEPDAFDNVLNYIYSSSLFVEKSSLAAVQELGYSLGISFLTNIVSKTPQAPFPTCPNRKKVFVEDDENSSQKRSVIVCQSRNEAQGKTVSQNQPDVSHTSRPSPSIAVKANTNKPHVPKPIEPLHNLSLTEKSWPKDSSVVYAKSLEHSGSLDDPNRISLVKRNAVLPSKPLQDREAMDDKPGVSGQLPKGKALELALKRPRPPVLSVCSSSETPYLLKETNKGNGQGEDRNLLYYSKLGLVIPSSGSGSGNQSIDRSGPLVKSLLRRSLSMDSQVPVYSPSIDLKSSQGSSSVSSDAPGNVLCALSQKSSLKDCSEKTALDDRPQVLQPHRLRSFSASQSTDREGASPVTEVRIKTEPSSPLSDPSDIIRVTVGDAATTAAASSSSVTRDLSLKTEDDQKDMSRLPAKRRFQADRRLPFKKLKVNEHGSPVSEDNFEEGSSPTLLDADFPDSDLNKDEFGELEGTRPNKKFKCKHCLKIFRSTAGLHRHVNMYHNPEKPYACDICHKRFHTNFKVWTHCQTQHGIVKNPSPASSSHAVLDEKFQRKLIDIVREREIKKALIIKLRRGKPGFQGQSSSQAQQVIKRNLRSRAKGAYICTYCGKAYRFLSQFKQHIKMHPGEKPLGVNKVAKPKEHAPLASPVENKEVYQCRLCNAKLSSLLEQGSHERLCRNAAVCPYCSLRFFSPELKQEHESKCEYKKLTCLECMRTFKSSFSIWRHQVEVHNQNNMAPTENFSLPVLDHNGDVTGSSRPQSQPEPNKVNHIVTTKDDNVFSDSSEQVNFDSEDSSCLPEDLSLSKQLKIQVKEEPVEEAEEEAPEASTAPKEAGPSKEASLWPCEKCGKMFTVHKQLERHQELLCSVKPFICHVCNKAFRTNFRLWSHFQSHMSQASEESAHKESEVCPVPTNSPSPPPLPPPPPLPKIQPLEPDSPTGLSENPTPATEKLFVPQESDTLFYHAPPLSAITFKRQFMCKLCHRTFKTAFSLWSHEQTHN

compound: C#Cc1cccc(Nc2ncnc3cc(OCCOC)c(OCCOC)cc23)c1 [erlotinib]; test: log2 fold change, soluble protein after heating vs DMSO (PISA); higher = thermal stabilisation; K562 cells, 10 uM, 30 min; active = over 0.2 and 3.5 SD of the protein, either way, in both replicates (recomputed)
Summary of the method: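 K562 cells at 2×10^6 cells/mL were treated for 30 min with 10 μM compound, and aliquots were heated for 3 min over 48°C-58°C before pooling. Extraction used PBS with 0.5% NP-40 at 4°C, and soluble protein was the supernatant after 21,000xg for 90 min, measured by TMTpro 16plex LC-MS/MS with channel sums equalised. Thermal stability values, relative to control samples and from duplicates, are log2 fold changes.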

log2 fold change, inactive:
ZDHHC14 (UniProt Q8IZN3) -0.004
ZC3H18 (UniProt Q86VM9) -0.066
ZC3H8 (UniProt Q8N5P1) -0.091
YIPF4 (UniProt Q9BSR8) 0.004
YDJC (UniProt A8MPS7) 0.046
ZMPSTE24 (UniProt O75844) -0.002
ZFYVE27 isoform 2 (UniProt Q5T4F4) 0.003
ZBTB43 (UniProt O43298) 0.081
ZMIZ2 (UniProt Q8NF64) 0.076
ZDHHC18 (UniProt Q9NUE0) 0.007
ZER1 (UniProt Q7Z7L7) 0.086
YY1 (UniProt P25490) -0.019
YWHAE (UniProt P62258) 0.006
YES1 (UniProt P07947) -0.145
ZBTB8OS (UniProt Q8IWT0) -0.045
YJU2 (UniProt Q9BW85) 0.035
YLPM1 (UniProt P49750) 0.084
YBX3 (UniProt P16989) -0.141
ZFYVE19 (UniProt Q96K21) 0.053
YARS2 (UniProt Q9Y2Z4) 0.073
XPO5 (UniProt Q9HAV4) 0.011
ZDHHC17 (UniProt Q8IUH5) 0.091
ZC3H14 (UniProt Q6PJT7) 0.049
YKT6 (UniProt O15498) 0.013
ZDHHC5 (UniProt Q9C0B5) 0.028
ZNF239 (UniProt Q16600) -0.098
ZC3H15 (UniProt Q8WU90) -0.015
YAE1 (UniProt Q9NRH1) 0.055
ZNF24 (UniProt P17028) -0.061
ZFAND6 (UniProt Q6FIF0) 0.024
ZC2HC1A (UniProt Q96GY0) 0.057
YWHAZ (UniProt P63104) 0.011
ZCCHC3 (UniProt Q9NUD5) -0.103
XPO1 (UniProt O14980) 0.019
YEATS4 (UniProt O95619) -0.061
ZC3HC1 (UniProt Q86WB0) 0.075
XXYLT1 (UniProt Q8NBI6) 0.007
ZDHHC3 isoform 2 (UniProt Q9NYG2) 0.005
ZBTB21 (UniProt Q9ULJ3) 0.235

No new results follow: entries from further up.
log2 fold change, inactive:
YJU2 (UniProt Q9BW85) 0.035
YLPM1 (UniProt P49750) 0.084
YBX3 (UniProt P16989) -0.141
